According to paper PMC3846746:
No constants are given. Whether binding was seen depends on the method and setting. Binding seen in cells or lysates may run through a third protein. A result given as binding can be weak or reduced; the word gives no strength.

Biological target: B-Raf (rat (endogenous in A7r5))
Experiment: co-IP; endogenous proteins of A7r5 lysates in IP lysis buffer (50 mmol/L NaCl, 10% glycerol, 1% Nonidet-P40, 10 mmol/L sodium phosphate, pH 8.0); anti-IQGAP1, anti-KSR1, anti-B-Raf or anti-C-Raf cross-linked to Protein G dynabeads, or anti-ERK1/2 cross-linked to protein A agarose, 4°C over night; western blot and densitometry; for the ERK1/2, IQGAP1 and KSR1 IPs cells were unstimulated or stimulated 5 min with DPBA or FCS

binding: binds weakly
B1: caveolin-1 (protein, UniProt P41350 1-178)
chain: MSGGKYVDSEGHLYTVPIREQGNIYKPNNKAMADEVNEKQVYDAHTKEIDLVNRDPKHLNDDVVKIDFEDVIAEPEGTHSFDGIWKASFTTFTVTKYWFYRLLSTIFGIPMALIWGIYFAILSFLHIWAVVPCIKSFLIEIQCISRVYSIYVHTFCDPLFEAIGKIFSNIRISTQEEI
